No constants are given. Whether binding was seen depends on the method and setting. Binding seen in cells or lysates may run through a third protein. Some results given as binding are weak or reduced against the parent protein; the word gives no strength.
Biological target: T1, Latexin (LXN), endogenous in murine BMDMs (mouse (endogenous in BMDMs)) (UniProt P70202)
T1 sequence: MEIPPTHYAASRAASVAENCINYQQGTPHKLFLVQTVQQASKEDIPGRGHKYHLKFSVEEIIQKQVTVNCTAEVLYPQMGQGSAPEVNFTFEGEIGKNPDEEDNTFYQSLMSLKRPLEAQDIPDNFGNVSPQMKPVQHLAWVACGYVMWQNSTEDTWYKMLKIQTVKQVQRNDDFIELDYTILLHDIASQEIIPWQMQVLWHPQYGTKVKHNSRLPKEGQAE
Assay: co-IP; immunoprecipitation of endogenous LXN and JAK1 in murine BMDMs

The chains behind the UniProt entries cited, without tags or fusion partners.
UniProt P52332: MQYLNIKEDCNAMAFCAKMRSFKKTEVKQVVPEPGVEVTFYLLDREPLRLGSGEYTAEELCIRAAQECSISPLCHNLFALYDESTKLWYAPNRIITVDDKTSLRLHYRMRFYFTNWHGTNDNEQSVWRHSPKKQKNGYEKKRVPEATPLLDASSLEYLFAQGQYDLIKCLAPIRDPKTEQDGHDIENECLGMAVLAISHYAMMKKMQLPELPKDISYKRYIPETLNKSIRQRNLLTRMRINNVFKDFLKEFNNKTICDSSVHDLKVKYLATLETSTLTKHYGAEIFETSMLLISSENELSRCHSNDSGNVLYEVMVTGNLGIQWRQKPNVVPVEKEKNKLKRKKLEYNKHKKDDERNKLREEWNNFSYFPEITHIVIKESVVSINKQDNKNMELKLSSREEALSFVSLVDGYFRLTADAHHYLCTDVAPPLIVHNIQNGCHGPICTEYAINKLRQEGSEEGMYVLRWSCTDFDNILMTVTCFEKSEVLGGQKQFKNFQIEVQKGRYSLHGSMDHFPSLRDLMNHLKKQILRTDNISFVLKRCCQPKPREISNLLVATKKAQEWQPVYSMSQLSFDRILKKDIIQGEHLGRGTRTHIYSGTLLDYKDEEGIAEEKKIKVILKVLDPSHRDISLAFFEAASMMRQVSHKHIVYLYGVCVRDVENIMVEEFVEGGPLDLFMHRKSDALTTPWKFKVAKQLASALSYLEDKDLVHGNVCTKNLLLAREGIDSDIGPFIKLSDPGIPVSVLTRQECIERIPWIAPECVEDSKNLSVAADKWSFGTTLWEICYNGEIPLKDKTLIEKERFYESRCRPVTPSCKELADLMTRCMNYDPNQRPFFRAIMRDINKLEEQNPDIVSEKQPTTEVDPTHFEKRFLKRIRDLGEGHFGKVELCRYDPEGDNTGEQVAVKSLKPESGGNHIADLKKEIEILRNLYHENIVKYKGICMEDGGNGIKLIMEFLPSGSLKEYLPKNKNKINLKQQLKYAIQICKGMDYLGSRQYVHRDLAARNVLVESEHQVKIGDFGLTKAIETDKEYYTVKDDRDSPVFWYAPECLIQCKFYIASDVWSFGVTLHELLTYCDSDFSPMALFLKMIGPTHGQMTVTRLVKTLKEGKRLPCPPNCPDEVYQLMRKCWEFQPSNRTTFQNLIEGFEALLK

binding: binds
Substance: JAK1, endogenous in murine BMDMs (from UniProt P52332 1-1153)

Reference: publication PMC11492231
